The mice bore no tumour; each value counts animals alive of those treated. Counts of survivors are from the toxicity check (mostly the fifth day) where no day follows; animals may have died later. Schedule codes are those of the source, read here as Q, the interval in days (D) or hours (H), X, the number of doses.

Our source for the survivor count values is PubChem BioAssay AID188 (DTP/NCI, 2004).

The assay relates to CD2F1 mice, nontumored, toxicity/survival. Nature of the assay: NCI In Vivo Anticancer Drug Screen. Data for tumor model Nontumored Animals (Toxicity Test) in CD2F1 (CDF1) mice.
Where [1] appears, read: dose: 1.0 mg/kg/injection, schedule: Q01DX001 (ip), vehicle: water.
Setting [2] is: dose: 10.0 mg/kg/injection, schedule: Q01DX001 (ip), vehicle: water.
[3] abbreviates: dose: 100.0 mg/kg/injection, schedule: Q01DX001 (ip), vehicle: water.

In the case of `C=CN1CCCC1=O`, the survivor count is listed as 10 of 10 (dose: 0.25 mg/kg/injection, schedule: Q01DX001 (iv), vehicle: saline); 10 of 10 (dose: 0.25 mg/kg/injection, schedule: Q01DX005 (iv), vehicle: saline); 10 of 10 (dose: 0.25 mg/kg/injection, schedule: Q04DX003 (iv), vehicle: saline); 10 of 10 (dose: 0.5 mg/kg/injection, schedule: Q01DX001 (ip), vehicle: saline); 10 of 10 (dose: 0.5 mg/kg/injection, schedule: Q01DX001 (iv), vehicle: saline); 10 of 10 (dose: 0.5 mg/kg/injection, schedule: Q01DX005 (ip), vehicle: saline). Moreover, the survivor count (dose: 0.5 mg/kg/injection, schedule: Q01DX005 (iv), vehicle: saline) is given as 10 of 10; the survivor count (dose: 0.5 mg/kg/injection, schedule: Q01DX009 (ip), vehicle: saline) is 10 of 10; the survivor count (dose: 0.5 mg/kg/injection, schedule: Q03HX008 (ip), vehicle: saline) is on record as 10 of 10; the survivor count (dose: 0.5 mg/kg/injection, schedule: Q03HX016 (ip), vehicle: saline) is 10 of 10; the survivor count (dose: 0.5 mg/kg/injection, schedule: Q03HX024 (ip), vehicle: saline) is 10 of 10; the survivor count (dose: 0.5 mg/kg/injection, schedule: Q04DX003 (ip), vehicle: saline) was 10 of 10. The survivor count reads like this: (dose: 0.5 mg/kg/injection, schedule: Q04DX003 (iv), vehicle: saline) 10 of 10; (dose: 0.5 mg/kg/injection, schedule: Q08DX002 (ip), vehicle: saline) 10 of 10; (dose: 1.0 mg/kg/injection, schedule: Q01DX001 (ip), vehicle: saline) 10 of 10; (dose: 1.0 mg/kg/injection, schedule: Q01DX001 (iv), vehicle: saline) 10 of 10; (dose: 1.0 mg/kg/injection, schedule: Q01DX005 (ip), vehicle: saline) 10 of 10; (dose: 1.0 mg/kg/injection, schedule: Q01DX005 (iv), vehicle: saline) 10 of 10. The survivor count runs as follows: (dose: 1.0 mg/kg/injection, schedule: Q01DX009 (ip), vehicle: saline) 10 of 10; (dose: 1.0 mg/kg/injection, schedule: Q03HX008 (ip), vehicle: saline) 8 of 10; (dose: 1.0 mg/kg/injection, schedule: Q03HX016 (ip), vehicle: saline) 8 of 10; (dose: 1.0 mg/kg/injection, schedule: Q03HX024 (ip), vehicle: saline) 8 of 9; (dose: 1.0 mg/kg/injection, schedule: Q04DX003 (ip), vehicle: saline) 10 of 10; (dose: 1.0 mg/kg/injection, schedule: Q04DX003 (iv), vehicle: saline) 10 of 10. Moreover, the survivor count (dose: 1.0 mg/kg/injection, schedule: Q08DX002 (ip), vehicle: saline) is reported as 9 of 10; the survivor count (dose: 2.0 mg/kg/injection, schedule: Q01DX001 (ip), vehicle: saline) is recorded as 10 of 10; the survivor count (dose: 2.0 mg/kg/injection, schedule: Q01DX005 (ip), vehicle: saline) is listed as 10 of 10; the survivor count (dose: 2.0 mg/kg/injection, schedule: Q01DX009 (ip), vehicle: saline) is 9 of 10; the survivor count (dose: 2.0 mg/kg/injection, schedule: Q03HX008 (ip), vehicle: saline) was 0 of 10; the survivor count (dose: 2.0 mg/kg/injection, schedule: Q03HX016 (ip), vehicle: saline) is 1 of 10. Moreover, the survivor count runs as follows: (dose: 2.0 mg/kg/injection, schedule: Q03HX024 (ip), vehicle: saline) 1 of 10; (dose: 2.0 mg/kg/injection, schedule: Q04DX003 (ip), vehicle: saline) 10 of 10; (dose: 2.0 mg/kg/injection, schedule: Q08DX002 (ip), vehicle: saline) 10 of 10; (dose: 1.9 grams/kg/injection, schedule: Q01DX001 (iv), vehicle: saline) 10 of 10; (dose: 1.9 grams/kg/injection, schedule: Q01DX005 (iv), vehicle: saline) 10 of 10; (dose: 1.9 grams/kg/injection, schedule: Q03HX008 (ip), vehicle: saline) 10 of 10. The survivor count by setting is: (dose: 1.9 grams/kg/injection, schedule: Q03HX016 (ip), vehicle: saline) 10 of 10; (dose: 1.9 grams/kg/injection, schedule: Q03HX024 (ip), vehicle: saline) 10 of 10; (dose: 1.9 grams/kg/injection, schedule: Q04DX003 (iv), vehicle: saline) 10 of 10; (dose: 3.8 grams/kg/injection, schedule: Q01DX001 (ip), vehicle: saline) 10 of 10; (dose: 3.8 grams/kg/injection, schedule: Q01DX001 (iv), vehicle: saline) 10 of 10; (dose: 3.8 grams/kg/injection, schedule: Q01DX005 (ip), vehicle: saline) 10 of 10. Besides, the survivor count is 10 of 10 (dose: 3.8 grams/kg/injection, schedule: Q01DX005 (iv), vehicle: saline); 10 of 10 (dose: 3.8 grams/kg/injection, schedule: Q01DX009 (ip), vehicle: saline); 10 of 10 (dose: 3.8 grams/kg/injection, schedule: Q03HX008 (ip), vehicle: saline); 10 of 10 (dose: 3.8 grams/kg/injection, schedule: Q03HX016 (ip), vehicle: saline); 10 of 10 (dose: 3.8 grams/kg/injection, schedule: Q03HX024 (ip), vehicle: saline); 10 of 10 (dose: 3.8 grams/kg/injection, schedule: Q04DX003 (ip), vehicle: saline). In addition, the survivor count reads like this: (dose: 3.8 grams/kg/injection, schedule: Q04DX003 (iv), vehicle: saline) 10 of 10; (dose: 3.8 grams/kg/injection, schedule: Q08DX002 (ip), vehicle: saline) 10 of 10; (dose: 7.5 grams/kg/injection, schedule: Q01DX001 (ip), vehicle: saline) 10 of 10; (dose: 7.5 grams/kg/injection, schedule: Q01DX001 (iv), vehicle: saline) 10 of 10; (dose: 7.5 grams/kg/injection, schedule: Q01DX005 (ip), vehicle: saline) 10 of 10; (dose: 7.5 grams/kg/injection, schedule: Q01DX005 (iv), vehicle: saline) 10 of 10. Also, the survivor count is given as 10 of 10 (dose: 7.5 grams/kg/injection, schedule: Q01DX009 (ip), vehicle: saline); 5 of 10 (dose: 7.5 grams/kg/injection, schedule: Q03HX008 (ip), vehicle: saline); 9 of 10 (dose: 7.5 grams/kg/injection, schedule: Q03HX016 (ip), vehicle: saline); 10 of 10 (dose: 7.5 grams/kg/injection, schedule: Q03HX024 (ip), vehicle: saline); 10 of 10 (dose: 7.5 grams/kg/injection, schedule: Q04DX003 (ip), vehicle: saline); 10 of 10 (dose: 7.5 grams/kg/injection, schedule: Q04DX003 (iv), vehicle: saline). Moreover, for the setting “dose: 7.5 grams/kg/injection, schedule: Q08DX002 (ip), vehicle: saline”, the survivor count is listed as 10 of 10.

Take `CN(C)c1ccc(/C=C/c2nc(N)nc(N)c2[N+](=O)[O-])cc1`: the survivor count is 2 of 2 under setting [1], 2 of 2 under setting [2] and 2 of 2 under setting [3].

For the compound `CCN(CC)c1nc(N)c([N+](=O)[O-])c(/C=C\c2ccc(N(CCCl)CCCl)cc2)n1`, the survivor count runs as follows: under setting [1], 2 of 2; under setting [2], 2 of 2; under setting [3], 2 of 2.

`COc1ccc2c(c1OC(C)=O)-c1cc(O)cc3c1C(C2)N(C(=O)CN(CCO)CCO)CC3` (stereo not given): the survivor count reads like this: (dose: 1.0 mg/kg/injection, schedule: Q01DX001 (ip), vehicle: DMSO) 2 of 2; (dose: 10.0 mg/kg/injection, schedule: Q01DX001 (ip), vehicle: DMSO) 2 of 2; (dose: 100.0 mg/kg/injection, schedule: Q01DX001 (ip), vehicle: DMSO) 2 of 2.
